Paper PMC4726497
No constants are given. Whether binding was seen depends on the method and setting. Binding seen in cells or lysates may run through a third protein. Some binding calls cover weakened binding; strength is not graded here.

Sequences of proteins named here, by UniProt entry; tags and fusion partners are left off. A change or cut given only in a name is not applied to a line headed by its entry.
UniProt Q9UIV1: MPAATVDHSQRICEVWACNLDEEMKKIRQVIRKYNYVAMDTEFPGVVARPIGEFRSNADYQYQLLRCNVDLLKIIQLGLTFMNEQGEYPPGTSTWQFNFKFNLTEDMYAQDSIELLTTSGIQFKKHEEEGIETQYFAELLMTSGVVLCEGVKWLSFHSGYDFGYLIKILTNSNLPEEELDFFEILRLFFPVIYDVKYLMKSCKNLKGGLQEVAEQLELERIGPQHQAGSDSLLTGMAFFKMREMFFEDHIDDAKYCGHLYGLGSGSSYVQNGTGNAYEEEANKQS

How the values were obtained:
CNOT7-M141R (human) = CNOT7-M141R (human) (UniProt Q9UIV1); assay: co-IP; immunoprecipitation of FLAG-CNOT7 constructs with mouse anti-FLAG and Protein G Dynabeads, as described in ref. 57; cell line not stated
[1] = biological target: FLAG-CNOT7 (wild type) (human) (UniProt Q9UIV1); assay: as above

B1: TOB1 (protein, UniProt P50616 1-345)
chain: MQLEIQVALNFIISYLYNKLPRRRVNIFGEELERLLKKKYEGHWYPEKPYKGSGFRCIHIGEKVDPVIEQASKESGLDIDDVRGNLPQDLSVWIDPFEVSYQIGEKGPVKVLYVDDNNENGCELDKEIKNSFNPEAQVFMPISDPASSVSSSPSPPFGHSAAVSPTFMPRSTQPLTFTTATFAATKFGSTKMKNSGRSNKVARTSPINLGLNVNDLLKQKAISSSMHSLYGLGLGSQQQPQQQQQPAQPPPPPPPPQQQQQQKTSALSPNAKEFIFPNMQGQGSSTNGMFPGDSPLNLSPLQYSNAFDVFAAYGGLNEKSFVDGLNFSLNNMQYSNQQFQPVMAN
- binding (CNOT7-M141R (human)): binds
- binding [1]: binds
